These are yes or no findings as the source states them, for the method shown. Some results given as binding are weak or reduced against the parent protein; the word gives no strength. Where a sequence is shown, tags or fusion partners need not be part of it.
Molecular target: TGF-β3 (UniProt P10600)
Assay: SPR competition, receptor with 0.8 nM TGF-β3 over immobilized 1D11

Amino acid sequences for entries named in this document (tags omitted). Residues count along the entry.
UniProt P10600, residues 301-412: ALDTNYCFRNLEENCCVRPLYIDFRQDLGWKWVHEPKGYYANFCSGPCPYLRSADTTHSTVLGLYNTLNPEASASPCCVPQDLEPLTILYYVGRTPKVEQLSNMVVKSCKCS

binding: binds
B1: RII-RIII (REU) fusion (protein)
chain: AAANGAVKFPQLCKFCDVRFSTCDNQKSCMSNCSITSICEKPQEVCVAVWRKNDENITLETVCHDPKLPYHDFILEDAASPKCIMKEKKKPGETFFMCSCSSDECNDNIIFSEEYNTSNPDGLGPVESSPGHGLDTAAACELSPINASHPVQALMESFTVLSGCASRGTTGLPREVHVLNLRSTDQGPGQRQREVTLHLNPIASVHTHHKPIVFLLNSPQPLVWHLKTERLAAGVPRLFLVSEGSVVQFPSGNFSLTAETEERNFPQENEHLLRWAQKEYGAVTSFTELKIARNIYIKVGEDQVFPPTCNIGKNFLSLNYLAEYLQPKAAEGCVLPSQPHEKEVHIIELITPSSNPYSAFQVDIIVDIRPAQEDPEVVKNLVLILKCKKSVNWVIKSFDVKGNLKVIAPNSIGFGKESERSMTMTKLVRDDIPSTQENLMKWALDNGYRPVTSYTMAPVANRFHLRLENNEEMRDEEVHTIPPELRILLDPDHPPALDNPLFPGEGSPNGGLPFPFPDIPRRGWKEGEDRIPRPKQPIVPSVQLLPDHREPEEVQGGVDIALSVKCDHEKMVVAVDKDSFQTNGYSGMELTLLDPSCKAKMNGTHFVLESPLNGCGTRHRRSTPDGVVYYNSIVVQAPSPGDSAGWPDGYEDLEAGDNGFPGDGDEGETAPLSRAGVVVFNCSLRQLRNPSGFQGQLDGNATFNMELYNTDLFLVPSPGVFSVAENEHVYVEVSVTKADQDLGFAIQTCFLSPYSNPDRMSDYTIIENICPKDDSVKFYSSKRVHFPIPHAEVDKKRFSFLFKSVFNTSLLFLHCELTLCSRKKGSLKLPRCVTPDDACTSLDATMIWTMMQNKKTFTKPLAVVLQVD

— patent US20170166624A1
